We go through 1 compound from publication PMC6748671, “Distribution of Small Molecular Weight Drugs into the Porcine Lens: Studies on Imaging Mass Spectrometry, Partition Coefficients, and Implications in Ocular Pharmacokinetics” (Molecular Pharmaceutics, 2019).

The nature of data set [1]: Drug distribution in the porcine lens by MALDI-IMS. The note with it: 4 h, posterior surface (thickness 1 mm), from ratio to d5-atropine signal. On the procedure:
After 4 h, the buffer was removed from the vials and the lenses were rinsed with HBSS–HEPES and gently blotted dry. The lenses were weighed, snap-frozen with liquid nitrogen in flat-bottomed plastic tubes, and then stored at −80 °C until sample preparation and analysis with MALDI-IMS. For the experiment, a smaller set of 16 drugs was used.
The frozen lenses were mounted onto a chuck using an optimal cutting temperature compound (Sakura Finetek, CA, USA) on the equatorial side. The lenses were sectioned to 10 μm thickness at −20 °C on a Leica CM Cryostat (S3050, Leica Microsystems GmbH, Germany), equipped with a FEATHER Microtome C35 blade (pfm medical, UK), and collected on a cryofilm (3C16UF, SECTION-LAB Co. Ltd. Yokohama, Japan) by modified Kawamoto method.[23] The film was subsequently mounted onto a microscopy glass slide using a double-sided copper tape. The slides were washed twice with 50 mM ammonium formate for 30 s and dried in a vacuum desiccator. The sample slides contained three lens sections from the drug mixture experiment and three blanks. […]
The drugs were identified as their [M + H]^+ ions. […] MALDI images for each detected compound were plotted using a 0.01 μ mass window. […]

For data set [2] the following is noted: cited from earlier work.

Each structure is given as a SMILES string.

With `CN1[C@@H]2CC[C@H]1C[C@@H](OC(=O)C(CO)c1ccccc1)C2` (some centres unmarked) [atropine], in data set [1], the “estimated concentration in lens posterior surface” value is roughly 3.4 µg/g. Further, in data set [2], the “concentration in the lens in vivo compared with aqueous humor, iris and ciliary body” value is given as “much lower”.
